Results are given in words; binding and its absence hold for the method and conditions named. Binding seen in cells or lysates may run through a third protein. Some results given as binding are weak or reduced against the parent protein; the word gives no strength.
Target: FLAG-HA-AGO2 (UniProt Q9UKV8)
Experiment: co-IP; extracts of HEK293 stably expressing FLAG-HA-AGO2 and transfected with NHA-DICER1, with or without digestion by purified gp63; FLAG-HA-AGO2 immunoprecipitated with anti-FLAG M2 affinity gel; associated DICER1 detected by western blot

The chains behind the UniProt entries cited, without tags or fusion partners.
UniProt Q9UKV8: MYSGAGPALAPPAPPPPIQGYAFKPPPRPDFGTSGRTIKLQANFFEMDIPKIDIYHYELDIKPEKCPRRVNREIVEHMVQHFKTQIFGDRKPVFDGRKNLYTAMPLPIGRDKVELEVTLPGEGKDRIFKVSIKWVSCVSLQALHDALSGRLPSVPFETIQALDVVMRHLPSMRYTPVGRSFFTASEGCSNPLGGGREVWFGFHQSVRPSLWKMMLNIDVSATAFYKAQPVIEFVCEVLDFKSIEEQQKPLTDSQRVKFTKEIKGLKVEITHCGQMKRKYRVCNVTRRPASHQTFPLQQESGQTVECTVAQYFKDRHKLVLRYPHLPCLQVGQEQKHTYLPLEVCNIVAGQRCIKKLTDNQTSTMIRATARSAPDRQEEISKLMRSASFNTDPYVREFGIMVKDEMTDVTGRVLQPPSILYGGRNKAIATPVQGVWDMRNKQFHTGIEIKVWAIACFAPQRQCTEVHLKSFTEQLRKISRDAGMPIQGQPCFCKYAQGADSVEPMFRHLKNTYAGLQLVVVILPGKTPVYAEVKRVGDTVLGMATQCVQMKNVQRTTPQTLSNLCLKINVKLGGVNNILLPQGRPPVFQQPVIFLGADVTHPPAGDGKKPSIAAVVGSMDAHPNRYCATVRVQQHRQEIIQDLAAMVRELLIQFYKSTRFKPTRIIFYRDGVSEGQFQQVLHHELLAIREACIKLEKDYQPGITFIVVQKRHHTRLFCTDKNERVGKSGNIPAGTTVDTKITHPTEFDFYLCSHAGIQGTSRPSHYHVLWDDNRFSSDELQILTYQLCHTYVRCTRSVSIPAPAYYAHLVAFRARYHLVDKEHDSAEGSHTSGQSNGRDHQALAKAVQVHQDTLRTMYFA
UniProt Q9UPY3: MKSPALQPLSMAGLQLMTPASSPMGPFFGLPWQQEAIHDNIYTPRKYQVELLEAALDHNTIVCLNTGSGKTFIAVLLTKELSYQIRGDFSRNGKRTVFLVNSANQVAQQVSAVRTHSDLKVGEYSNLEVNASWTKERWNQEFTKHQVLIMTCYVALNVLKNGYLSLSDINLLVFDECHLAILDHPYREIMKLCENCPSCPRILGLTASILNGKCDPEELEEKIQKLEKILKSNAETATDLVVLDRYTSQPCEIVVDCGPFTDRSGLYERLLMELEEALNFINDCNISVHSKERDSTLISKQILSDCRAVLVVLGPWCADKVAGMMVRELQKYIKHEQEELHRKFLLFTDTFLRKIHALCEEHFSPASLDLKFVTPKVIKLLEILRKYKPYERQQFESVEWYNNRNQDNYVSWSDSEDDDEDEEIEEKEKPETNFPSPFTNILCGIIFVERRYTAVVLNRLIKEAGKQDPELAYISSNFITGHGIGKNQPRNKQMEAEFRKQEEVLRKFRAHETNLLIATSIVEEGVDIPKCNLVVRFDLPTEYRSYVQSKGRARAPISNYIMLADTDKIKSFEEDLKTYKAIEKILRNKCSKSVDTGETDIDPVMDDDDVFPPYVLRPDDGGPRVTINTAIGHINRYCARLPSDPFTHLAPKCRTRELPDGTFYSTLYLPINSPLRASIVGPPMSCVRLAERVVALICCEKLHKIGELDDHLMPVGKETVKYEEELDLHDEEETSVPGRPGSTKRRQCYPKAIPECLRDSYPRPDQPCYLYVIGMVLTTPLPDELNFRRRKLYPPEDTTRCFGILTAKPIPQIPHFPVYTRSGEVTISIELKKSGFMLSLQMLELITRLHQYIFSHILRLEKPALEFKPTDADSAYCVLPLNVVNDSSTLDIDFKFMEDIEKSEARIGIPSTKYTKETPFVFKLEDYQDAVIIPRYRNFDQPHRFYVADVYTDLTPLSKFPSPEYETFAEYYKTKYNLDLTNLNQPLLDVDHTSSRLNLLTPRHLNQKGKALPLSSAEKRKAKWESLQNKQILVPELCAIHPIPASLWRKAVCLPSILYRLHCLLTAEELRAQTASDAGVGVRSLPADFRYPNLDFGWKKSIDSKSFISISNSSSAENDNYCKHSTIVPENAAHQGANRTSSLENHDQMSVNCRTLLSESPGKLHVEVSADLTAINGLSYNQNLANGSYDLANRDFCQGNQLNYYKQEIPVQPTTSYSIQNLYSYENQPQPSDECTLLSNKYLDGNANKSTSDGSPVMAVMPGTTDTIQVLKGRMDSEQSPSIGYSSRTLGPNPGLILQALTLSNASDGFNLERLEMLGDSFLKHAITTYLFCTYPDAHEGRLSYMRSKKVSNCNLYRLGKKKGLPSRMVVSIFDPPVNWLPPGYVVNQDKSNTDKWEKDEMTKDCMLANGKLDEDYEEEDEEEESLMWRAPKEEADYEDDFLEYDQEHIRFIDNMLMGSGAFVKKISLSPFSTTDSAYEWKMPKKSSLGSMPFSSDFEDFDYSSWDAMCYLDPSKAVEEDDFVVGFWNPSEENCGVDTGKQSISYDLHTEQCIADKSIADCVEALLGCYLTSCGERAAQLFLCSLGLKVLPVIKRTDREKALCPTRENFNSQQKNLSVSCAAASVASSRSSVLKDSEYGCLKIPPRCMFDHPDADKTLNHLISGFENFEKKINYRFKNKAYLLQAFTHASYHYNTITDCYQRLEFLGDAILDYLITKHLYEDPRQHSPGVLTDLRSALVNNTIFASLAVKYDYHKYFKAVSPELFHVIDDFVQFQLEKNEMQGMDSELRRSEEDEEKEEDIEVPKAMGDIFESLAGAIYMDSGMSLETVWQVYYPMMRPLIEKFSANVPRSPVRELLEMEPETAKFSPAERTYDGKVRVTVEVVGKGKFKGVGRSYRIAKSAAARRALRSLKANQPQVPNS

For “NHA-DICER1 (from UniProt Q9UPY3 1-1922) (enzyme)”, the binding was “binds”.

From article PMC3605572
